Some of these results come from one statement about several compounds together. For at least one compound, name, drawing or mass did not settle the structure.
Legend:
Type in all cases: cell-based
[1] = system: Staphylococcus aureus Oxford; experiment: conventional MIC assay, Staphylococcus aureus Oxford
Protocol: (§1) Compounds of the present invention were assessed for anti-bacterial activity in a conventional MIC assay against a range of pathogenic organisms.

[2] = system: Haemophilius influenzae Q1; experiment: conventional MIC assay, Haemophilius influenzae Q1
Protocol: as §1

[3] = system: Moraxella catarrhalis Ravasio; experiment: conventional MIC assay, Moraxella catarrhalis Ravasio
Protocol: as §1

[4] = system: Streptococcus pneumoniae 1629; experiment: conventional MIC assay, Streptococcus pneumoniae 1629
Protocol: as §1

| Compound | MIC [1] | MIC [2] | MIC [3] | MIC [4] |
| --- | --- | --- | --- | --- |
| C=C[C@]1(C)C[C@@H](OC(=O)NC(=O)c2ccc(NC)nc2)[C@]2(C)C(C)CC[C@]3(C[C@H](O)C(=O)C32)[C@@H](C)[C@@H]1O (stereo partly shown) [Example 26] | ≤ 4 µg/mL | ≤ 4 µg/mL | ≤ 4 µg/mL | ≤ 4 µg/mL |
| C=C[C@]1(C)C[C@@H](OC(=O)NC(=O)c2csc(N)n2)[C@]2(C)C(C)CC[C@]3(C[C@H](O)C(=O)C32)[C@@H](C)[C@@H]1O (stereo partly shown) [Example 9] | – | ≤ 4 µg/mL | – | – |
| C=C[C@]1(C)C[C@@H](OC(=O)NC(=O)c2cccnc2)[C@]2(C)C(C)CC[C@]3(C[C@H](O)C(=O)C32)[C@@H](C)[C@@H]1O (stereo partly shown) [Example 14] | ≤ 4 µg/mL | ≤ 4 µg/mL | ≤ 4 µg/mL | ≤ 4 µg/mL |
| C=C[C@]1(C)C[C@@H](OC(=O)NC(=O)c2cnc(NC)nc2)[C@]2(C)C(C)CC[C@]3(C[C@H](O)C(=O)C32)[C@@H](C)[C@@H]1O (stereo partly drawn) [Example 18, (2-N-methylaminopyrimidin-5-ylcarbonyl)carbamic Acid 2-(S)-hydroxymutilin 14-ester] | – | ≤ 4 µg/mL | – | – |
| C=C[C@]1(C)C[C@@H](OC(=O)NC(=O)c2cnc(N)nc2)[C@]2(C)C(C)CC[C@]3(C[C@H](O)C(=O)C32)[C@@H](C)[C@@H]1O (stereo partly shown) [Example 10] | ≤ 4 µg/mL | ≤ 4 µg/mL | ≤ 4 µg/mL | ≤ 4 µg/mL |
| C=C[C@]1(C)C[C@@H](OC(=O)NC(=O)c2cc(N)nc(N)n2)[C@]2(C)C(C)CC[C@]3(C[C@H](O)C(=O)C32)[C@@H](C)[C@@H]1O (stereo partly shown) [Example 11] | ≤ 4 µg/mL | ≤ 4 µg/mL | ≤ 4 µg/mL | ≤ 4 µg/mL |
| C=C[C@]1(C)C[C@@H](OC(=O)NC(=O)c2ccc(NC)nn2)[C@]2(C)C(C)CC[C@]3(C[C@H](O)C(=O)C32)[C@@H](C)[C@@H]1O (stereo partly drawn) [Example 28, (3-N-methylpyridazin-6-ylcarbonyl)carbamic Acid 2-(S)-hydroxymutilin 14-ester] | – | ≤ 4 µg/mL | – | – |
| C=C[C@]1(C)C[C@@H](OC(=O)NC(=O)c2cnc(N)c(C#N)c2)[C@]2(C)C(C)CC[C@]3(C[C@H](O)C(=O)C32)[C@@H](C)[C@@H]1O (stereo partly drawn) [Example 29, (6-Amino-5-cyanonicotinoyl)carbamic Acid 2-(S)-hydroxymutilin 14-ester] | – | ≤ 4 µg/mL | – | – |
| C=C[C@]1(C)C[C@@H](OC(=O)NC(=O)c2cncc(N)c2)[C@]2(C)C(C)CC[C@]3(C[C@H](O)C(=O)C32)[C@@H](C)[C@@H]1O (stereo partly drawn) [Example 3, (5-Aminonicotinoyl)carbamic Acid 2-(S)hydroxymutilin 14-ester] | – | ≤ 4 µg/mL | – | – |
| C=CC1(C)CC(OC(=O)NC(=O)c2cccc(N)n2)C2(C)C(C)CCC3(C[C@H](O)C(=O)C32)C(C)C1O (stereo partly drawn) [Example 4, (6-aminopyridin-2-ylcarbonyl)carbamic acid 2-(S)-hydroxymutilin 14-ester] | ≤ 4 µg/mL | ≤ 4 µg/mL | ≤ 4 µg/mL | ≤ 4 µg/mL |
| C=C[C@]1(C)C[C@@H](OC(=O)NC(=O)c2cnc(OC)nc2)[C@]2(C)C(C)CC[C@]3(C[C@H](O)C(=O)C32)[C@@H](C)[C@@H]1O (stereo partly shown) [Example 13] | ≤ 4 µg/mL | ≤ 4 µg/mL | ≤ 4 µg/mL | ≤ 4 µg/mL |
| C=C[C@]1(C)C[C@@H](OC(=O)NC(=O)c2cnc(N)s2)[C@]2(C)C(C)CC[C@]3(C[C@H](O)C(=O)C32)[C@@H](C)[C@@H]1O (stereo partly shown) [Example 8] | – | ≤ 4 µg/mL | – | – |
| C=C[C@]1(C)C[C@@H](OC(=O)NC(=O)c2csc(C3CCN(CC#N)CC3)n2)[C@]2(C)C(C)CC[C@]3(C[C@H](O)C(=O)C32)[C@@H](C)[C@@H]1O (stereo partly drawn) [Example 31, [2-(1-Cyanomethylpiperidin-4-yl)thiazole-4-carbonyl]carbamic Acid 2-(S)-hydroxymutilin 14-ester] | – | ≤ 4 µg/mL | – | – |
| C=C[C@]1(C)C[C@@H](OC(=O)NC(=O)c2cnc(N)cn2)[C@]2(C)C(C)CC[C@]3(C[C@H](O)C(=O)C32)[C@@H](C)[C@@H]1O (stereo partly shown) [Example 15] | ≤ 4 µg/mL | ≤ 4 µg/mL | ≤ 4 µg/mL | ≤ 4 µg/mL |
| C=CC1(C)CC(OC(=O)NC(=O)c2csc(C3CCNCC3)n2)C2(C)C(C)CCC3(C[C@H](O)C(=O)C32)C(C)C1O (stereo partly drawn) [Example 12, [2-(piperidin-4-yl)thiazole-4-carbonyl]carbamic acid 2-(S)-hydroxymutilin 14-ester] | ≤ 4 µg/mL | ≤ 4 µg/mL | ≤ 4 µg/mL | ≤ 4 µg/mL |
| CC[C@]1(C)C[C@@H](OC(=O)NC(=O)c2cnc(N)c(C#N)c2)[C@]2(C)C(C)CC[C@]3(C[C@H](O)C(=O)C32)[C@@H](C)[C@@H]1O (stereo partly shown) [Example 33] | – | ≤ 4 µg/mL | – | – |

— patent publication US6972297B2, “2-Hydroxy-mutilin carbamate derivatives for antibacterial use” (SmithKline Beecham p.l.c., priority 2000, dated 2005)
